Source: PubChem BioAssay AID256 (DTP/NCI, 2004)
The list does not hold the whole screen: it gathers tests that were run many times, whatever their T/C, doses with no T/C, and many T/C values between a quarter and a half above the control. Further doses and runs are listed elsewhere. T/C: endpoint of the treated group in % of that of the vehicle group. Some entries give survivors of the animals treated and no T/C: the source files T/C as zero there, which appears to mark a toxic dose or a test without result, not a measured value. Some survivor counts are full or nearly so, which does not show that the dose was tolerated: survival well below the control is almost never listed, so the zero probably covers shortened survival too. Counts of survivors are from the toxicity check (mostly the fifth day) where no day follows; animals may have died later. Schedules are NCI's codes, taken here to give the interval after Q, in days (D) or hours (H), and the number of doses after X. Some entries were tested several times; their values stand side by side, smallest first. For survival time, this PubChem deposit counts one and a half times the control or more as active, and values a quarter to a half above the control carry no call in these data; other NCI protocols may use other cut-offs. Some T/C values carry the count of animals alive at the toxicity check (mostly the fifth day); where none is given, no animal had died by that day.

Test system: CD2F1 mice, L1210 leukemia ip, survival T/C
Test: NCI In Vivo Anticancer Drug Screen. Data for tumor model L1210 Leukemia (intraperitoneal) in CD2F1 (CDF1) mice
Details: higher T/C = longer survival
How it was run: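 Vehicle-treated tumor-bearing mice served as controls (C) for compound-treated mice (T). Reported figure is T divided by C.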

[1] = T/C endpoint: mean survival time, dose: 100.0 mg/kg/injection, schedule: Q04DX003 (ip), vehicle: saline with Tween-80
[2] = T/C endpoint: mean survival time, dose: 200.0 mg/kg/injection, schedule: Q04DX003 (ip), vehicle: saline with Tween-80
[3] = T/C endpoint: mean survival time, dose: 400.0 mg/kg/injection, schedule: Q04DX003 (ip), vehicle: saline with Tween-80
[4] = T/C endpoint: mean survival time, dose: 300.0 mg/kg/injection, schedule: Q01DX001 (ip), vehicle: saline
[5] = T/C endpoint: mean survival time, dose: 175.0 mg/kg/injection, schedule: Q04DX003 (ip), vehicle: saline

## O=NN(CCCl)C(=O)NC1CCCCC1
T/C endpoint: mean survival time, dose: 0.13 mg/kg/injection, schedule: Q03HX008 (oral), vehicle: saline
  T/C: 133 % of control
T/C endpoint: mean survival time, dose: 2.0 mg/kg/injection, schedule: Q03HX024 (oral), vehicle: saline
  T/C: 135 % of control
T/C endpoint: mean survival time, dose: 2.0 mg/kg/injection, schedule: Q03HX040 (oral), vehicle: saline
  survivor count: 10 of 10
T/C endpoint: mean survival time, dose: 4.0 mg/kg/injection, schedule: Q03HX008 (oral), vehicle: saline
  survivor count: 10 of 10
T/C endpoint: mean survival time, dose: 4.0 mg/kg/injection, schedule: Q03HX040 (oral), vehicle: saline
  survivor count: 7 of 10
T/C endpoint: mean survival time, dose: 8.0 mg/kg/injection, schedule: Q01DX001 (ip), vehicle: other
  T/C: 127 % of control
T/C endpoint: mean survival time, dose: 8.0 mg/kg/injection, schedule: Q03HX008 (oral), vehicle: saline
  survivor count: 9 of 10
T/C endpoint: mean survival time, dose: 8.0 mg/kg/injection, schedule: Q03HX024 (ip), vehicle: saline
  T/C: 133 % of control
T/C endpoint: mean survival time, dose: 8.0 mg/kg/injection, schedule: Q03HX024 (oral), vehicle: saline
  survivor count: 7 of 10
T/C endpoint: mean survival time, dose: 8.0 mg/kg/injection, schedule: Q03HX040 (ip), vehicle: saline
  T/C: 145 % of control
T/C endpoint: mean survival time, dose: 8.0 mg/kg/injection, schedule: Q03HX040 (oral), vehicle: saline
  survivor count: 1 of 10
T/C endpoint: mean survival time, dose: 8.0 mg/kg/injection, schedule: Q04DX003 (ip), vehicle: saline + alcohol
  T/C: 129 % of control
T/C endpoint: mean survival time, dose: 14.0 mg/kg/injection, schedule: Q01DX001 (ip), vehicle: carboxymethylcellulose (CMC)
  T/C: 137 % of control
T/C endpoint: mean survival time, dose: 16.0 mg/kg/injection, schedule: Q01DX001 (ip), vehicle: saline
  T/C: 134 % of control
T/C endpoint: mean survival time, dose: 16.0 mg/kg/injection, schedule: Q03HX008 (ip), vehicle: saline
  T/C: 128 % of control
T/C endpoint: mean survival time, dose: 32.0 mg/kg/injection, schedule: Q04DX003 (ip), vehicle: saline + alcohol
  T/C: 137 % of control
T/C endpoint: mean survival time, dose: 64.0 mg/kg/injection, schedule: Q04DX003 (oral), vehicle: saline
  T/C: 129 % of control
T/C endpoint: mean survival time, dose: 128.0 mg/kg/injection, schedule: Q01DX001 (ip), vehicle: other
  survivor count: 6 of 6
T/C endpoint: mean survival time, dose: 128.0 mg/kg/injection, schedule: Q01DX005 (ip), vehicle: saline
  survivor count: 10 of 10
T/C endpoint: mean survival time, dose: 128.0 mg/kg/injection, schedule: Q01DX005 (oral), vehicle: saline
  survivor count: 10 of 10
T/C endpoint: mean survival time, dose: 128.0 mg/kg/injection, schedule: Q01DX009 (ip), vehicle: saline
  survivor count: 10 of 10
T/C endpoint: mean survival time, dose: 128.0 mg/kg/injection, schedule: Q01DX009 (oral), vehicle: saline
  survivor count: 9 of 10
T/C endpoint: mean survival time, dose: 128.0 mg/kg/injection, schedule: Q03HX024 (ip), vehicle: saline
  T/C: 137 % of control
T/C endpoint: mean survival time, dose: 128.0 mg/kg/injection, schedule: Q04DX003 (ip), vehicle: saline
  survivor count: 10 of 10
T/C endpoint: mean survival time, dose: 256.0 mg/kg/injection, schedule: Q01DX001 (oral), vehicle: saline
  survivor count: 6 of 10
T/C endpoint: mean survival time, dose: 256.0 mg/kg/injection, schedule: Q01DX005 (oral), vehicle: saline
  survivor count: 8 of 10
T/C endpoint: mean survival time, dose: 256.0 mg/kg/injection, schedule: Q01DX009 (oral), vehicle: saline
  survivor count: 8 of 10
T/C endpoint: mean survival time, dose: 512.0 mg/kg/injection, schedule: Q01DX001 (oral), vehicle: saline
  T/C: 144 % of control [7 of 10 alive]
T/C endpoint: mean survival time, dose: 512.0 mg/kg/injection, schedule: Q01DX005 (oral), vehicle: saline
  survivor count: 1 of 10
T/C endpoint: mean survival time, dose: 512.0 mg/kg/injection, schedule: Q01DX009 (oral), vehicle: saline
  survivor count: 1 of 10
T/C endpoint: mean survival time, dose: 512.0 mg/kg/injection, schedule: Q04DX003 (oral), vehicle: saline
  survivor count: 6 of 10
T/C endpoint: median survival time, dose: 2.0 mg/kg/injection, schedule: Q01DX009 (ip), vehicle: Klucel (hydroxypropylcellulose) (HPC)
  T/C: 148 % of control
T/C endpoint: median survival time, dose: 4.0 mg/kg/injection, schedule: Q01DX009 (ip), vehicle: Klucel (hydroxypropylcellulose) (HPC)
  T/C: 162, 175, 190, 260 % of control
T/C endpoint: median survival time, dose: 8.0 mg/kg/injection, schedule: Q01DX009 (ip), vehicle: Klucel (hydroxypropylcellulose) (HPC)
  T/C: 232, 259, 365, 375 % of control
T/C endpoint: median survival time, dose: 16.0 mg/kg/injection, schedule: Q01DX009 (ip), vehicle: Klucel (hydroxypropylcellulose) (HPC)
  T/C: 287, 306, 348, 365 % of control
T/C endpoint: median survival time, dose: 24.0 mg/kg/injection, schedule: Q01DX001 (ip), vehicle: distilled water + Tween-80 + alcohol
  T/C: 127 % of control
T/C endpoint: median survival time, dose: 32.0 mg/kg/injection, schedule: Q01DX009 (ip), vehicle: Klucel (hydroxypropylcellulose) (HPC)
  T/C: 127, 137, 304, 348 % of control
T/C endpoint: median survival time, dose: 128.0 mg/kg/injection, schedule: Q01DX009 (ip), vehicle: Klucel (hydroxypropylcellulose) (HPC)
  survivor count: 3 of 6 and 6 of 6

## CCCCCCCCCCCCCCCc1ccc(C(=O)C[n+]2ccccc2)cc1
T/C endpoint: mean survival time, dose: 25.0 mg/kg/injection, schedule: Q01DX009 (ip), vehicle: saline with Tween-80
  T/C: 127 % of control
T/C endpoint: mean survival time, dose: 50.0 mg/kg/injection, schedule: Q01DX009 (ip), vehicle: saline with Tween-80
  survivor count: 2 of 6
[1]
  survivor count: 6 of 6
[2]
  survivor count: 0 of 6
[3]
  survivor count: 0 of 6

## CCN(CC)c1ccc(N=Nc2c(C)nc(N)nc2-c2ccccc2)cc1
T/C endpoint: mean survival time, dose: 75.0 mg/kg/injection, schedule: Q01DX001 (ip), vehicle: saline
  survivor count: 0 of 6
[4]
  survivor count: 1 of 6

## Nc1nc2c(C(=O)N3CCCC3)nnn2c2ccccc12
T/C endpoint: median survival time, dose: 200.0 mg/kg/injection, schedule: Q01DX009 (ip), vehicle: saline with Tween-80
  survivor count: 0 of 10

## COc1cccc(/C(C)=N\NC(=O)c2ccccc2)c1
[2]
  survivor count: 4 of 6
[3]
  survivor count: 0 of 6

## NC1CCCCC1N.O=C([O-])c1ccc(N=Nc2cccc([N+](=O)[O-])c2)cc1[O-].[Pt+4]
T/C endpoint: median survival time, dose: 50.0 mg/kg/injection, schedule: Q04DX003 (ip), vehicle: saline with Tween-80
  T/C: 125 % of control
T/C endpoint: median survival time, dose: 100.0 mg/kg/injection, schedule: Q04DX003 (ip), vehicle: saline with Tween-80
  T/C: 141 % of control

## O=P(O)(O)OCC(O)CF (stereo not given)
T/C endpoint: mean survival time, dose: 115.5 mg/kg/injection, schedule: Q04DX003 (ip), vehicle: saline
  survivor count: 0 of 6
[5]
  T/C: 128 % of control [5 of 6 alive]
  survivor count: 0 of 6
T/C endpoint: mean survival time, dose: 262.5 mg/kg/injection, schedule: Q04DX003 (ip), vehicle: saline
  survivor count: 0 of 6
T/C endpoint: mean survival time, dose: 350.0 mg/kg/injection, schedule: Q04DX003 (ip), vehicle: saline
  survivor count: 1 of 6

## C=C(C)C1CNC(C(=O)O)C1CC(=O)O (stereo not given)
[1]
  survivor count: 0 of 6
[2]
  survivor count: 0 of 6
[3]
  survivor count: 0 of 6

## CC(N)c1ccc(OCCOc2ccc(C(C)(C)CC(C)(C)C)cc2)cc1 (stereo not given)
T/C endpoint: mean survival time, dose: 50.0 mg/kg/injection, schedule: Q01DX009 (ip), vehicle: Klucel (hydroxypropylcellulose) (HPC)
  survivor count: 3 of 6
T/C endpoint: mean survival time, dose: 100.0 mg/kg/injection, schedule: Q01DX009 (ip), vehicle: Klucel (hydroxypropylcellulose) (HPC)
  survivor count: 0 of 6
T/C endpoint: mean survival time, dose: 200.0 mg/kg/injection, schedule: Q01DX009 (ip), vehicle: Klucel (hydroxypropylcellulose) (HPC)
  survivor count: 0 of 6

## Cc1ccc(C(=O)O)s1
[3]
  survivor count: 0 of 6

## COc1cc([N+](=O)[O-])ccc1NC(=O)OC/C=C/c1ccccc1
T/C endpoint: mean survival time, dose: 400.0 mg/kg/injection, schedule: Q01DX009 (ip), vehicle: saline with Tween-80
  survivor count: 6 of 6

## COCNC(=S)N/N=C/c1ccccn1
T/C endpoint: mean survival time, dose: 100.0 mg/kg/injection, schedule: Q04DX002 (ip), vehicle: saline with Tween-80
  survivor count: 1 of 3
T/C endpoint: mean survival time, dose: 200.0 mg/kg/injection, schedule: Q04DX002 (ip), vehicle: saline with Tween-80
  survivor count: 0 of 3
T/C endpoint: mean survival time, dose: 400.0 mg/kg/injection, schedule: Q04DX002 (ip), vehicle: saline with Tween-80
  survivor count: 0 of 3

## O=c1cccc[nH]1 (tested in a mixture with another compound)
T/C endpoint: mean survival time, dose: 100.0 mg/kg/injection, schedule: Q01DX009 (ip), vehicle: saline with Tween-80
  survivor count: 6 of 6
T/C endpoint: mean survival time, dose: 200.0 mg/kg/injection, schedule: Q01DX009 (ip), vehicle: saline with Tween-80
  survivor count: 0 of 6
T/C endpoint: mean survival time, dose: 400.0 mg/kg/injection, schedule: Q04DX003 (ip), vehicle: saline
  survivor count: 2 of 6

## CSC(=CC(=O)c1ccccc1)SC
[4]
  survivor count: 0 of 6
